This test relates to BDF1 mice, M5076 sarcoma ip, median survival T/C. As to the kind of experiment: NCI In Vivo Anticancer Drug Screen. Data for tumor model Sarcoma M5076 (intraperitoneal) in B6D2F1 (BDF1) mice. To be noted: T/C endpoint: median survival time, higher T/C = longer survival. As to the method:
The antitumor activity of compounds was measured in mice bearing transplantable tumors. Survival or tumor size were measured and the results are expressed as the measurement made in the treated group (T) divided by the measurement made in the vehicle treated control group (C). The tumor model used in this assay is Sarcoma M5076 (intraperitoneal) in B6D2F1 (BDF1) mice

The mark [1] stands for this setting: dose: 20.0 mg/kg/injection, schedule: Q04DX004 (ip), vehicle: saline.
Where [2] appears, read: dose: 20.0 mg/kg/injection, schedule: Q04DX005 (ip), vehicle: saline, evaluated on day 75.
Where [3] appears, read: dose: 20.0 mg/kg/injection, schedule: Q04DX005 (ip), vehicle: saline, evaluated on day 100.
The mark [4] stands for this setting: dose: 40.0 mg/kg/injection, schedule: Q04DX005 (ip), vehicle: saline, evaluated on day 75.
Setting [5] is: dose: 40.0 mg/kg/injection, schedule: Q04DX005 (ip), vehicle: saline, evaluated on day 100.
[6] abbreviates: dose: 80.0 mg/kg/injection, schedule: Q04DX005 (ip), vehicle: saline, evaluated on day 75.
Where [7] appears, read: dose: 80.0 mg/kg/injection, schedule: Q04DX005 (ip), vehicle: saline, evaluated on day 100.
The mark [8] stands for this setting: dose: 160.0 mg/kg/injection, schedule: Q04DX005 (ip), vehicle: saline.
Where [9] appears, read: dose: 160.0 mg/kg/injection, schedule: Q04DX004 (ip), vehicle: saline.

The list shows only some results of the screen, not a fair sample: it is rich in T/C values a quarter to a half above the control, in often repeated tests (any T/C) and in doses without a T/C. Other doses and runs of a compound stand elsewhere. T/C: endpoint of the treated group in % of that of the vehicle group. Some doses have a count of surviving animals in place of a T/C: the source files T/C as zero there, which appears to mark a toxic dose or a test without result, not a measured value. Some survivor counts are full or nearly so, which does not show that the dose was tolerated: the source hardly ever lists a survival T/C far under the control, and the zero likely stands for such cases as well. Survivors were counted at the toxicity check, usually on the fifth day, unless a day is given; later deaths do not show. Schedules are NCI's codes, read here as Q, the interval in days (D) or hours (H), X, the number of doses. Some entries hold several experiments; the values are given in rising order. For survival time, this PubChem deposit counts one and a half times the control or more as active, and values a quarter to a half above the control carry no call in these data; other NCI protocols may use other cut-offs. Some T/C values are followed by the survivors on the day toxicity was checked, most often the fifth; without a count, all were alive then. Brackets with × count equal records among those shown. Starred links: 1 amine or outer side, 2 acyl side, 3 side chain; linkers in the order of their positions; H or OH if unused. Positions of bridges follow the written chain, without caps; N, C: chain ends. Non-standard residues stand in square brackets, D forms with d. Residues, ends and D or L forms follow the SMILES beside them. Chains are numbered I, II in the order given. Actinocin(9to1) = Cc1c2oc3c(C)ccc(C(=O)[*:1])c3nc-2c(C(=O)[*:2])c(N)c1=O; aThr = C[C@H](O)[C@H](N)C(=O)O; NMeV = CN[C@H](C(=O)O)C(C)C; Sar = CNCC(=O)O

In the case of `CSC1SCC2C(=O)N(C)C(C(C)C)C(=O)OCC(NC(=O)c3cnc4ccccc4n3)C(=O)NC(C)C(=O)N(C)C1C(=O)N(C)C(C(C)C)C(=O)OCC(NC(=O)c1cnc3ccccc3n1)C(=O)NC(C)C(=O)N2C` (stereo not given), the T/C (dose: 12.5 micrograms/kg/injection, schedule: Q01DX009 (ip), vehicle: saline with Tween-80) was 136 % of control. Further, under “dose: 200.0 micrograms/kg/injection, schedule: Q01DX009 (ip), vehicle: saline with Tween-80”, the survivor count was 5 of 10.

Consider `O=Cc1c(O)c2ccccc2[nH]c1=O`, for which the survivor count (dose: 200.0 mg/kg/injection, schedule: Q04DX004 (ip), vehicle: saline with Tween-80) is given as 7 of 10 on day 14 and the survivor count (dose: 400.0 mg/kg/injection, schedule: Q04DX004 (ip), vehicle: saline with Tween-80) is given as 0 of 10 on day 14.

`Cc1c2ccccc2c(C)c2c1cc(C(=O)O)c1ccccc12`: where the note is “dose: 50.0 mg/kg/injection, schedule: Q04DX004 (ip), vehicle: sodium bicarbonate”, the T/C was 128 % of control.

Turning to `Oc1cc(O)c(-c2c(O)cc(O)cc2O)c(O)c1` (tested in a mixture with another compound), the T/C was 127 % of control (dose: 7.5 mg/kg/injection, schedule: Q01DX009 (ip), vehicle: saline) and 127 % of control [9 of 10 alive on day 9] (dose: 25.0 mg/kg/injection, schedule: Q01DX009 (ip), vehicle: saline). The survivor count was 5 of 10 on day 9 (dose: 30.0 mg/kg/injection, schedule: Q01DX009 (ip), vehicle: saline) and 0 of 10 on day 9 (dose: 60.0 mg/kg/injection, schedule: Q01DX009 (ip), vehicle: saline).

In the case of `C=C1C(=O)O[C@H]2C1[C@H](OC(=O)/C(C)=C\C)CC(=C)[C@@H]1C(=O)[C@H]3O[C@@]3(C)[C@@]12O` (stereo not given in full), the T/C (dose: 4.0 mg/kg/injection, schedule: Q01DX009 (ip), vehicle: saline + alcohol) is 125 % of control and the T/C (dose: 8.0 mg/kg/injection, schedule: Q01DX009 (ip), vehicle: saline + alcohol) was 132 % of control [9 of 10 alive]. Further, the survivor count (dose: 10.0 mg/kg/injection, schedule: Q01DX009 (ip), vehicle: saline + alcohol) is reported as 2 of 10 on day 9; the survivor count (dose: 20.0 mg/kg/injection, schedule: Q01DX009 (ip), vehicle: saline + alcohol) is given as 0 of 10 on day 9; the survivor count (dose: 40.0 mg/kg/injection, schedule: Q01DX009 (ip), vehicle: saline + alcohol) is 0 of 10 on day 9; the survivor count (dose: 80.0 mg/kg/injection, schedule: Q01DX009 (ip), vehicle: saline + alcohol) is listed as 0 of 10 on day 9.

Regarding `O=P1(N(CCCl)CCCl)NCCCO1` (stereo not given), the T/C (dose: 10.0 mg/kg/injection, schedule: Q04DX005 (ip), vehicle: saline) was 126 % of control; the T/C under setting [1] is listed as 105, 113, 114, 118, 119 % of control; the T/C under setting [2] is reported as 102, 116, 119, 120, 121 % of control; the T/C (dose: 20.0 mg/kg/injection, schedule: Q04DX005 (ip), vehicle: saline, evaluated on day 90) was 129 % of control; the T/C under setting [3] was 180 % of control; the T/C (dose: 40.0 mg/kg/injection, schedule: Q04DX004 (ip), vehicle: saline, evaluated on day 60) is 132, 166, 234, 241 % of control. Further, the T/C is, setting by setting: (dose: 40.0 mg/kg/injection, schedule: Q04DX004 (ip), vehicle: saline, evaluated on day 75) 112, 124, 138, 149, 159 % of control; under setting [4], 119, 139, 146, 165, 169 % of control; (dose: 40.0 mg/kg/injection, schedule: Q04DX005 (ip), vehicle: saline, evaluated on day 90) 179 % of control; under setting [5], 253 % of control; (dose: 80.0 mg/kg/injection, schedule: Q04DX004 (ip), vehicle: saline, evaluated on day 60) 207, 214, 221, 260 % of control; (dose: 80.0 mg/kg/injection, schedule: Q04DX004 (ip), vehicle: saline, evaluated on day 75) 156, 182, 188, 195, 224 % of control. In addition, the T/C reads like this: under setting [6], 99, 170, 196, 208, 242 % of control; (dose: 80.0 mg/kg/injection, schedule: Q04DX005 (ip), vehicle: saline, evaluated on day 90) 245 % of control; under setting [7], 95 % of control; (dose: 160.0 mg/kg/injection, schedule: Q04DX004 (ip), vehicle: saline, evaluated on day 60) 237, 260, 263, 284 % of control; (dose: 160.0 mg/kg/injection, schedule: Q04DX004 (ip), vehicle: saline, evaluated on day 75) 88, 98 (2×), 210, 282 % of control; under setting [8], 86, 106, 219 [9 of 10 alive on day 9], 327 % of control. Moreover, the survivor count under setting [8] is 2 of 8 on day 17 and 9 of 10 on day 9.

Take `COc1ccc(C(N)=O)cc1N=NN(C)C`: the T/C is, setting by setting: (dose: 12.5 mg/kg/injection, schedule: Q04DX004 (ip), vehicle: Klucel (hydroxypropylcellulose) (HPC)) 126 % of control; (dose: 25.0 mg/kg/injection, schedule: Q04DX004 (ip), vehicle: Klucel (hydroxypropylcellulose) (HPC)) 130 % of control; (dose: 50.0 mg/kg/injection, schedule: Q04DX004 (ip), vehicle: Klucel (hydroxypropylcellulose) (HPC)) 140 % of control; (dose: 100.0 mg/kg/injection, schedule: Q04DX004 (ip), vehicle: Klucel (hydroxypropylcellulose) (HPC)) 146 % of control [9 of 10 alive on day 14]. The survivor count (dose: 200.0 mg/kg/injection, schedule: Q04DX004 (ip), vehicle: Klucel (hydroxypropylcellulose) (HPC)) is 0 of 10 on day 14.

Take `O=C1c2ccccc2C(=O)c2c(NCCNCCO)ccc(NCCNCCO)c21`: the T/C was 146, 161, 164, 174 % of control under setting [1]; 145, 154, 164, 177 % of control under setting [2]; 401 % of control under setting [3]; 153 [9 of 10 alive on day 9], 175, 195, 264 % of control (dose: 40.0 mg/kg/injection, schedule: Q04DX004 (ip), vehicle: saline); 156, 164, 241, 251 % of control under setting [4]; 401 % of control under setting [5]. Moreover, the T/C is, setting by setting: (dose: 80.0 mg/kg/injection, schedule: Q04DX004 (ip), vehicle: saline) 181, 212, 214, 230 % of control [9 of 10 alive on day 9]; under setting [6], 161, 184, 207, 208 % of control; under setting [7], 115 % of control; under setting [9], 138 % of control. The survivor count under setting [9] was 2 of 10 on day 9 and 9 of 10 on day 9; the survivor count under setting [8] was 0 of 10 on day 9, 3 of 10 on day 9, 8 of 10 on day 9, 9 of 10.

Regarding `Cc1c2oc3c(C)ccc(C(=O)N[C@@H]4C(=O)N[C@H](C(C)C)C(=O)N5CCC[C@H]5C(=O)N(C)CC(=O)N(C)[C@@H](C(C)C)C(=O)O[C@H]4C)c3nc-2c(C(=O)N[C@@H]2C(=O)N[C@H](C(C)C)C(=O)N3CCC[C@H]3C(=O)N(C)CC(=O)N(C)[C@@H](C(C)C)C(=O)O[C@H]2C)c(N)c1=O` (I: [aThr][dV]P[Sar][NMeV] / II: [aThr][dV]P[Sar][NMeV]; ester I:1-I:C, II:1-II:C; linker I:N-II:N via Actinocin(9to1)), the T/C (dose: 0.03 mg/kg/injection, schedule: Q04DX004 (ip), vehicle: saline + alcohol) is 126 % of control and the T/C (dose: 0.05 mg/kg/injection, schedule: Q04DX004 (ip), vehicle: saline + alcohol) was 147 % of control. The survivor count by setting is: (dose: 0.4 mg/kg/injection, schedule: Q04DX004 (ip), vehicle: saline + alcohol) 8 of 8 on day 9; (dose: 0.8 mg/kg/injection, schedule: Q04DX004 (ip), vehicle: saline + alcohol) 2 of 8 on day 9.

The record behind these values is PubChem BioAssay AID286 (DTP/NCI, 2004).
